Source: article PMC3498349
No constants are given. Whether binding was seen depends on the method and setting. In cells and extracts the contact can be indirect. Some entries that bind do so weakly or less than the wild type.

By UniProt entry, the sequences of proteins in these tests, tags left out.
UniProt O15169: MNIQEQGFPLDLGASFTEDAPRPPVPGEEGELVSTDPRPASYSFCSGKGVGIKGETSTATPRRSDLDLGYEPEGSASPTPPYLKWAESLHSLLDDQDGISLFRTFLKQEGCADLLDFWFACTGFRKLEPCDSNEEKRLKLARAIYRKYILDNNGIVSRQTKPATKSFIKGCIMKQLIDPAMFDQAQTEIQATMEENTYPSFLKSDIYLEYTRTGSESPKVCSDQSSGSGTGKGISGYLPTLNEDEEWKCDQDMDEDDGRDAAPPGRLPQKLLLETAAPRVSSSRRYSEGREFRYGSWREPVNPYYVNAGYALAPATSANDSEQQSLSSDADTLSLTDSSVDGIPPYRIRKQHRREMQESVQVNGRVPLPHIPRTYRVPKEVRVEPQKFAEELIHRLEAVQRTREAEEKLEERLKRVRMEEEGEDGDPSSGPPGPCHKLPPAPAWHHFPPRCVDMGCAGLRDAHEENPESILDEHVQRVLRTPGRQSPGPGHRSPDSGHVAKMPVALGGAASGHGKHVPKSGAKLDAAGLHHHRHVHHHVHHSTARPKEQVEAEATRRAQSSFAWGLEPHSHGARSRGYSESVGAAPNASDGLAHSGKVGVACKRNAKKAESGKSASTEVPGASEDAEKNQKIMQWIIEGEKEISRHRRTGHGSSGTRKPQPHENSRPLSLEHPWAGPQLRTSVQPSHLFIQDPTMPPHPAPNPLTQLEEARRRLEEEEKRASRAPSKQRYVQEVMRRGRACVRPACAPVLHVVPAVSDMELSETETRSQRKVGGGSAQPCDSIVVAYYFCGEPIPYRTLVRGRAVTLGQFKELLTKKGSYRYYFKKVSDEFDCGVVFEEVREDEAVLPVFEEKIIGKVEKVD
UniProt P53350: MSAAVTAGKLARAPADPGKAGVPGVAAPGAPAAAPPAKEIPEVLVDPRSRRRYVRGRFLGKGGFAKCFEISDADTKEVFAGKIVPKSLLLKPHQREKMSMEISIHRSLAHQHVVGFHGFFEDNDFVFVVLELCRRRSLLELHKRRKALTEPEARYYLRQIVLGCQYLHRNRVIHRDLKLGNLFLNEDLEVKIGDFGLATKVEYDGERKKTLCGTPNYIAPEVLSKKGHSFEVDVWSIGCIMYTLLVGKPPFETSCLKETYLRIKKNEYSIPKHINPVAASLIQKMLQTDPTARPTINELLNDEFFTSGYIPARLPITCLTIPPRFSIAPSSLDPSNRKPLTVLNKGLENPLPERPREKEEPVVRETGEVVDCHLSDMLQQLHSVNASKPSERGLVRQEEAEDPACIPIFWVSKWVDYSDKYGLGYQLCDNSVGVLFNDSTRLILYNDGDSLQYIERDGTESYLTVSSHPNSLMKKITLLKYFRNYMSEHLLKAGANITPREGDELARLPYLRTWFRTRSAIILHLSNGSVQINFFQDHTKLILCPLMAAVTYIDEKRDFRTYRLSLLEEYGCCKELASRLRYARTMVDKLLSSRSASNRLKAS

Biological target: Axin (endogenous, HeLa cells) (human (endogenous in HeLa)) (UniProt O15169)
Assay: co-IP; HeLa cell lysates immunoprecipitated with anti-Axin, mouse anti-PLK1 or control IgGs, then immunoblotting; endogenous proteins

## PLK1 (endogenous, HeLa cells) (from UniProt P53350 1-603) (enzyme)
  binding: binds
